Measurements as given in patent US20120095185A1, “PROCESS FOR CHELATING COPPER IONS USING CB-TE2A BIFUNCTIONAL CHELATE” (NORDION (CANADA) INC., priority 2010, published 2012).

Test: Optimisation of Cu-64 radiolabeling of 13a and 13b to >95% radiochemical yield
Conditions: for CB-TE2A BFC (6a/6b) Concentration: concentration required for >95% radiochemical yield; for Temperature (optimized Cu-64 radiolabeling condition): to >95% radiochemical yield
Description: As used herein, the terms “degree of complexation” and “percent complexation” are used interchangeably and are defined to mean the percentage of the ion that is successfully complexed with the bifunctional chelate. Here percent complexation is expressed as radiochemical yield, which is the yield of radiolabeled complex expressed as a fraction of the radioactivity originally present. The value of radiochemical yield obtained when making the ion complexes of the present reaction can be greater than 90% or greater than 95%, as measured by reverse phase chromatography (HPLC).
The conditions required to radiolabel 13a and 13b with Cu-64 in >95% radiochemical yield were optimized for pH, temperature and reaction time (Table 1). The exact same radioisotope lot, buffer solutions, and conditions were used for the reaction and the analysis of both 13a and 13b.
Cu-64 radiolabeled 13a and 13b are distinct species with different retention times by HPLC. The analysis was conducted with a Phenomenex hydrosynergy RPC18 column (4.6×150 mm) using a gradient of 98% trifluoracetic acid in water (0.01% v/v) 2% acetonitrile to 50% trifluoracetic acid in water (0.01% v/v) 50% acetonitrile over 30 min at 1 mL/min.

## O=C(O)CN1CCCN2CCN(CCCN(C(CCc3ccc([N+](=O)[O-])cc3)C(=O)O)CC2)CC1 (stereo not shown) [13a]
  CB-TE2A BFC (6a/6b) Concentration: As low as 6 μM
  Temperature (optimized Cu-64 radiolabeling condition): Room temperature (~20° C.)

## O=C(O)CN1CCCN2CCN(CCCN(C(CCc3ccc([N+](=O)[O-])cc3)C(=O)O)CC2)CC1 (stereo not shown) [13b]
  CB-TE2A BFC (6a/6b) Concentration: 50 μM or higher
  Temperature (optimized Cu-64 radiolabeling condition): 80 °C
